These are yes or no findings as the source states them, for the method shown. Binding seen in cells or lysates may run through a third protein. Some results given as binding are weak or reduced against the parent protein; the word gives no strength.
Target: GLP-1R in PathHunter CHO-K1-βarr2-EA-GLP-1R cells (UniProt P43220)
Assay: split reporter; PathHunter CHO-K1-βarr2-EA-GLP-1R cells stimulated with agonist (semaglutide or GL0034) for 30 minutes at 37°C in Ham's F12 without FBS; luminescence after lysis with PathHunter detection reagents

Protein sequences, listed by entry. Tags and fused reporters are not part of them. Residues count along the entry.
UniProt P43220, residues 24-463: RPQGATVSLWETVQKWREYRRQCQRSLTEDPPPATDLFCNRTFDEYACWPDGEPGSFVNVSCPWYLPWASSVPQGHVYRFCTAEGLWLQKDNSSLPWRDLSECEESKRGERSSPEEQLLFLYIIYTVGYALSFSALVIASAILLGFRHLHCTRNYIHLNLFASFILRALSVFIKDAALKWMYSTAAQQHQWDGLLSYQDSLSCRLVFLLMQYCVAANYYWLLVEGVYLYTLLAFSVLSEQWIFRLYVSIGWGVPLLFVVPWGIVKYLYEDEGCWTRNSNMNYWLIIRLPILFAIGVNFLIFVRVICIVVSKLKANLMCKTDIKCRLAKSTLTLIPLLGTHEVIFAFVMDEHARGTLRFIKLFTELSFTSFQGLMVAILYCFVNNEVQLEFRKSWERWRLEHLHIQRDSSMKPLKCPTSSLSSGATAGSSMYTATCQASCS
UniProt P32121: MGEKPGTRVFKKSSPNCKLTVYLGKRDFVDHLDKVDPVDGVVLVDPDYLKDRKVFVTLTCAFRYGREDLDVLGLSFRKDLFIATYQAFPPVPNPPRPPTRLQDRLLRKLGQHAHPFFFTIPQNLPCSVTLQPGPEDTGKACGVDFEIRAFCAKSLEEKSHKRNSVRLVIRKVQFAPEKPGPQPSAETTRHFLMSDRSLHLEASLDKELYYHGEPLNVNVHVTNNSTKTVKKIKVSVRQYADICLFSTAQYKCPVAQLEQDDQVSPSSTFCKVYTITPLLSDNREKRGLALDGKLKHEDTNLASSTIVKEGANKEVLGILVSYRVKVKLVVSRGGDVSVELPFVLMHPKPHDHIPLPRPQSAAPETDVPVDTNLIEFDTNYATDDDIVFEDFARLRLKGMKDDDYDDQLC

binding: binds
Substance: β-arrestin-2 (βarr2-EA) in PathHunter CHO-K1-βarr2-EA-GLP-1R cells (from UniProt P32121 1-409)
